No constants are given. Whether binding was seen depends on the method and setting. Binding seen in cells or lysates may run through a third protein. Some binding calls cover weakened binding; strength is not graded here. Blank lines part the entries; values can stand above or below the molecule they belong to.
Tests used:
[1] = molecular target: Adenosine triphosphate (ATP)-citrate lyase (ACLY) (human (endogenous in Huh7)) (UniProt P53396); assay: co-IP; Huh7 cells transfected as indicated (Flag-SEC63, T537A, T537E); co-immunoprecipitation with the indicated antibody
[2] = molecular target: SEC63 (human (endogenous in Huh7)) (UniProt Q9UGP8); assay: co-IP; endogenous proteins; Huh7 cell lysates in Buffer A (25 mM Tris-Cl pH 7.5, 150 mM KCl, 1 mM DTT, 2 mM EDTA, 0.5 mM PMSF, 0.2% Nonidet P-40); antibodies coupled to protein A-Sepharose beads, 2 h at 4 °C; western blot; untreated cells and cells treated with TM (5 μg/mL) or TG (1 μM) for 8 h
[3] = molecular target: Flag-tagged ACLY mutant A3 (amino acids 621-820, CoA-ligase domain) (UniProt P53396); assay: co-IP; Huh7 cells transfected with Flag-tagged ACLY or SEC63 deletion mutants and treated with MG132; Co-IP with anti-Flag antibodies
[4] = molecular target: Adenosine triphosphate (ATP)-citrate lyase (ACLY) (human (endogenous in Huh7)) (UniProt P53396); assay: co-IP; endogenous proteins; Huh7 cell lysates in Buffer A (25 mM Tris-Cl pH 7.5, 150 mM KCl, 1 mM DTT, 2 mM EDTA, 0.5 mM PMSF, 0.2% Nonidet P-40); antibodies coupled to protein A-Sepharose beads, 2 h at 4 °C; western blot; untreated cells and cells treated with TM (5 μg/mL) or TG (1 μM) for 8 h
[5] = molecular target: Adenosine triphosphate (ATP)-citrate lyase (ACLY) (human (endogenous in Huh7)) (UniProt P53396); assay: co-IP; Huh7 cells transfected with indicated plasmids (Flag-SEC63), or control and SEC63-depleted cells treated with ER stress drugs; Co-IP with anti-ACLY antibody

Sequences of proteins named here, by UniProt entry; tags and fusion partners are left off. A change or cut given only in a name is not applied to a line headed by its entry. A line that says so, or that is headed by a name, gives the form on record, which may keep a tag or linker. Residues count along the entry.
UniProt P53396: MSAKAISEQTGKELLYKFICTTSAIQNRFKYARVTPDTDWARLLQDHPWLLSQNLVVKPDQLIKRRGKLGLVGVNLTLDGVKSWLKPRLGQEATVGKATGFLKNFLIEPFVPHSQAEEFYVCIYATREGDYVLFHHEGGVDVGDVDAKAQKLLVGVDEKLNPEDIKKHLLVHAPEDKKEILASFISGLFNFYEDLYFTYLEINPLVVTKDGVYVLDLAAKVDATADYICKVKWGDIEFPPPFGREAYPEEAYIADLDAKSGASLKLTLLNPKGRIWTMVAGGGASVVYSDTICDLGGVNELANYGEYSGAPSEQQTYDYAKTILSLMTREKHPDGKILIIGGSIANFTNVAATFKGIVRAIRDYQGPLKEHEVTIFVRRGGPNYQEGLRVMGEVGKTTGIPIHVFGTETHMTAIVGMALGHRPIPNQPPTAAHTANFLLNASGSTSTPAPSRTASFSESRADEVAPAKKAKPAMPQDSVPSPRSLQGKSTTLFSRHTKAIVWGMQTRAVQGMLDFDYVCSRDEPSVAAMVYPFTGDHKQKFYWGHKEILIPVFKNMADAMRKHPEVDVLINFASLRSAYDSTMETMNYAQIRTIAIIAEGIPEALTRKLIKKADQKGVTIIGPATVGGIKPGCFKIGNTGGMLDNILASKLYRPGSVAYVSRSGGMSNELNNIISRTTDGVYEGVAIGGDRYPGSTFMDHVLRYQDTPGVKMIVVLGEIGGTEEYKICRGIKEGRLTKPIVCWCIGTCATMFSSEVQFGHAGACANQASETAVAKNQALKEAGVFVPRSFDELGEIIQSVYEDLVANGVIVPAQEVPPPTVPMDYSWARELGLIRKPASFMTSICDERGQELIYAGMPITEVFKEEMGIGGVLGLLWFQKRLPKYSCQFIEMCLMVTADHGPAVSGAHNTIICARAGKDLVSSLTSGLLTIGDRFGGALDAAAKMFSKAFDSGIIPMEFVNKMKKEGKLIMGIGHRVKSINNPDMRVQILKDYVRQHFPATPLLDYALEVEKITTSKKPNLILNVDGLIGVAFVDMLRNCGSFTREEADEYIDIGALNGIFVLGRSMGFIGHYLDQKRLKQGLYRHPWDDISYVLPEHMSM
Flag-tagged ACLY mutant A3 (amino acids 621-820, CoA-ligase domain): residues 621-820 of P53396
UniProt Q9UGP8: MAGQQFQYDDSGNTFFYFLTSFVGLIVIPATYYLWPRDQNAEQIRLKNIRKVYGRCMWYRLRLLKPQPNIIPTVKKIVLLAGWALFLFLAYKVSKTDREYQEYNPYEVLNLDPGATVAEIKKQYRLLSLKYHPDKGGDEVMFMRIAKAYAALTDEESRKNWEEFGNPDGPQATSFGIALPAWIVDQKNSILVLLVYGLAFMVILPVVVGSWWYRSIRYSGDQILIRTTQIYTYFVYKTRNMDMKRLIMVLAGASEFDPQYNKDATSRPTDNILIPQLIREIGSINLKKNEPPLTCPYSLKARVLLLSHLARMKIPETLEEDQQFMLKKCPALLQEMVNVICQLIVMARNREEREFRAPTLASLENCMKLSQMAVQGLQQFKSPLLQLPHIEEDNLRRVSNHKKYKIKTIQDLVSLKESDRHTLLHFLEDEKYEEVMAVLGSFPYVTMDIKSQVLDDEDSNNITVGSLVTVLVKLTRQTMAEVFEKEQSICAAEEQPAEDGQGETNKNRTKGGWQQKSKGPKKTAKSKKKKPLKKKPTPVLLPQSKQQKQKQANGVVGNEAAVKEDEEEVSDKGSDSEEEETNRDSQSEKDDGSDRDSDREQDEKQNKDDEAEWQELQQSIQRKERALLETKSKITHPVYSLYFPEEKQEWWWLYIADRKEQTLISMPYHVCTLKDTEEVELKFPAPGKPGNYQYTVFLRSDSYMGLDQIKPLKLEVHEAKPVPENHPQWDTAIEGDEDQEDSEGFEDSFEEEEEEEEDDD
UniProt O75460, residues 19-977: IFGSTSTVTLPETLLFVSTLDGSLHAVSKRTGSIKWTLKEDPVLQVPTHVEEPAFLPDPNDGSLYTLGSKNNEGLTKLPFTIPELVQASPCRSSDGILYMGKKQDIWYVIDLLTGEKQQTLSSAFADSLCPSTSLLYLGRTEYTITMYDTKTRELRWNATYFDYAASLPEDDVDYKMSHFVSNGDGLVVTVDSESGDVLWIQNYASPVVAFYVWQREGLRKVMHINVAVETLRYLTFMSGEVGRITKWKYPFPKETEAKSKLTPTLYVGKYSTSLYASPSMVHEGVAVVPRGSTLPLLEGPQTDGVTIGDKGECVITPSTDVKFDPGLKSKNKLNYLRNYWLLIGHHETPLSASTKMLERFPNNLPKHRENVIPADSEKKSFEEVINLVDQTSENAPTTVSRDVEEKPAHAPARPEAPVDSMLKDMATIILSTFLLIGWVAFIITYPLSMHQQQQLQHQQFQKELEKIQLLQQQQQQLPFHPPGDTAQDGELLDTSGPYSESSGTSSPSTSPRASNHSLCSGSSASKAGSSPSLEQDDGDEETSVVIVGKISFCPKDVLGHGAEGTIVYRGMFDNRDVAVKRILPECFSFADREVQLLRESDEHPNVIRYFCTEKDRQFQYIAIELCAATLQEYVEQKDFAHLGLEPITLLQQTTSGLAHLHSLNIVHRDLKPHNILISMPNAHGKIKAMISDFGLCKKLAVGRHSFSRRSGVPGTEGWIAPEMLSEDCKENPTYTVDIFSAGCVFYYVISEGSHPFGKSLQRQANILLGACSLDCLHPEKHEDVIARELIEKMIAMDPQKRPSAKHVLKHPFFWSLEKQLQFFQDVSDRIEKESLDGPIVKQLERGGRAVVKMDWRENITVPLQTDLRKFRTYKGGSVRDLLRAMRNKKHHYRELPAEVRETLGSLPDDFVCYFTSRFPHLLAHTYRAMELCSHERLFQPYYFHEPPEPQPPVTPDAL
UniProt P84022: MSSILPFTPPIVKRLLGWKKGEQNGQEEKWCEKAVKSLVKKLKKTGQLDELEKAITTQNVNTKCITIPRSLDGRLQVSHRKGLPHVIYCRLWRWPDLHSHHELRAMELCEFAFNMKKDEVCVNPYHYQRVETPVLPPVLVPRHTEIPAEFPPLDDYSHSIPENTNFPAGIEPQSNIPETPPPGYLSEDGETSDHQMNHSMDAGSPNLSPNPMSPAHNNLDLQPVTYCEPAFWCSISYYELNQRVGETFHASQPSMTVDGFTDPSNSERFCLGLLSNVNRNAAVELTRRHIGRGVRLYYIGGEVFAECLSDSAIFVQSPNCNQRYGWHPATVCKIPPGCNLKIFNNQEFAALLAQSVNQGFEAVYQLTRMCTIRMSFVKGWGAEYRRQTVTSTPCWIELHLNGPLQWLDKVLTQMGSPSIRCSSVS

- binding [1]: binds
Molecule: Flag-tagged SEC63 (from UniProt Q9UGP8 1-760)

- binding [1]: binds
Molecule: Flag-tagged SEC63 T537A (from UniProt Q9UGP8 1-760)

- binding [1]: binds
Molecule: Flag-tagged SEC63 T537E (from UniProt Q9UGP8 1-760)

- binding [2]: binds
Molecule: Inositol-requiring enzyme 1α (IRE1α) (from UniProt O75460 19-977)

- binding [3]: binds
- binding [4]: binds
Molecule: SEC63 (from UniProt Q9UGP8 1-760)

- binding [2]: binds
Molecule: SMAD3 (from UniProt P84022 1-425)

- binding [5]: binds
B1: KLHL25 (Kelch-like family member 25) (protein, UniProt Q9H0H3 1-589)
chain: MSVSVHETRKSRSSTGSMNVTLFHKASHPDCVLAHLNTLRKHCMFTDVTLWAGDRAFPCHRAVLAASSRYFEAMFSHGLRESRDDTVNFQDNLHPEVLELLLDFAYSSRIAINEENAESLLEAGDMLQFHDVRDAAAEFLEKNLFPSNCLGMMLLSDAHQCRRLYEFSWRMCLVHFETVRQSEDFNSLSKDTLLDLISSDELETEDERVVFEAILQWVKHDLEPRKVHLPELLRSVRLALLPSDCLQEAVSSEALLMADERTKLIMDEALRCKTRILQNDGVVTSPCARPRKAGHTLLILGGQTFMCDKIYQVDHKAKEIIPKADLPSPRKEFSASAIGCKVYVTGGRGSENGVSKDVWVYDTVHEEWSKAAPMLIARFGHGSAELENCLYVVGGHTSLAGVFPASPSVSLKQVEKYDPGANKWMMVAPLRDGVSNAAVVSAKLKLFVFGGTSIHRDMVSKVQCYDPSENRWTIKAECPQPWRYTAAAVLGSQIFIMGGDTEFTAASAYRFDCETNQWTRIGDMTAKRMSCHALASGNKLYVVGGYFGTQRCKTLDCYDPTSDTWNCITTVPYSLIPTAFVSTWKHLPA

Source: publication PMC10150531
